Data: paper PMC8639918, “Mechanism of phosphate sensing and signaling revealed by rice SPX1-PHR2 complex structure” (Nature Communications, 2021)

Protein sequences, listed by entry. Tags and fused reporters are not part of them. Residues count along the entry.
UniProt Q6Z156, 230-426 L348A/L358A/I362A: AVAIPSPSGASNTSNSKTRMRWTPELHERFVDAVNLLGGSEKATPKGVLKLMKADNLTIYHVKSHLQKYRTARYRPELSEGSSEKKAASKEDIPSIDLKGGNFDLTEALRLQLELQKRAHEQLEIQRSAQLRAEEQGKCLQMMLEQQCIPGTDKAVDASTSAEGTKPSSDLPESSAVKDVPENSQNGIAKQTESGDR
UniProt Q6Z156, 230-426: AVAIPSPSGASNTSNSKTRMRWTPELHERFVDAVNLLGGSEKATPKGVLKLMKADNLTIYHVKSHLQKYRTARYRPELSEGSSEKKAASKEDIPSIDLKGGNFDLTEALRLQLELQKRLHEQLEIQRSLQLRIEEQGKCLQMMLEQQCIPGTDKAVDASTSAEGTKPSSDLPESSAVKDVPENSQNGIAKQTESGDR

Assays:
Test in all cases: ITC
[1] = biological target: PHR2 230-426 3M L348A,L358A,I362A (Oryza sativa (rice)) (UniProt Q6Z156); conditions: 25 C, buffer E (200 mM PBS pH 7.4), 70 uM P1BS injected into 10 uM protein, recombinant protein, residues 230-426, protein details: N-terminal 10xHis-MsyB, TEV-cleaved
[2] = system: PHR2 230-426 + SPX1 1-259; conditions: buffer E (200 mM PBS pH 7.4), 70 uM P1BS injected into 10 uM protein, recombinant protein
[3] = biological target: PHR2 230-426 (Oryza sativa (rice)) (UniProt Q6Z156); conditions: buffer E (200 mM PBS pH 7.4), 70 uM P1BS injected into 10 uM protein, recombinant protein, residues 230-426, protein details: N-terminal 10xHis-MsyB, TEV-cleaved

## CGCGAATATTCCCA (double strand) [P1BS]
[1]
  Kd: 1.8 µM
[2]; SPX1 1-259 + InsP6, binding completely abolished, 25 C
  binding result: no binding
[2]; SPX1 1-259 present, no InsP6, 25 C
  Kd: 0.381 µM
[3]; 25 C
  Kd: 0.256 µM
[3]; InsP6, 25 C
  Kd: 0.232 µM

Construct, isoform or probe ends are uncertain for at least one entry. For some assays here: A negative result means that nothing was seen under these conditions.
